Reference: PubChem BioAssay AID1224831 (NIAID, 2016)
Here is a random part of about 3,500 deposited reagents. Of all reagents, 731 (21%) were called active. 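Active means either lowered or raised reporter signal; the gene-median score did not drive the per-siRNA calls.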 The numbers tell different reagents against one gene apart.

- Test: 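Retesting screen hits on the TLR4-driven TNF response with six separate siRNAs each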 (follow-up of hits)
- Cell system: human THP-1 B5 monocytic leukaemia cells carrying a TNF promoter luciferase reporter, made macrophage-like with PMA
- Knock-down reagent: single siRNA against human genes, 50 nM
- Duration: about 68 h of knock-down, then 4 h LPS
- Conditions: LPS (Salmonella minnesota, TLR-grade) at 10 ng/ml for 4 h; PMA 5 ng/ml present during knock-down
- Read-out: 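Firefly to renilla luciferase ratio of a TNF promoter reporter after 4 h LPS, scaled to plate median, turned into robust z-score, averaged over replicates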
- Reading the numbers: TNF reporter z-score: higher = stronger LPS-induced TNF reporter signal; z-score, median over gene's siRNAs: higher = stronger TNF reporter signal across the gene's siRNAs
- Call rule: 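Active when the replicate mean z-score is about -1 or lower, or about 1.5 or higher; lowered and raised TNF reporter signal both count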
- Calls: active = changed TNF reporter (either direction); inactive = little change

{"gene": "PRAF2 (GeneID 11230)", "reagent no.": 1, "TNF reporter z-score, replicate mean": -0.23, "z-score, median over gene's siRNAs": -0.095, "activity call": "inactive"}
{"gene": "PRAF2 (GeneID 11230)", "reagent no.": 2, "TNF reporter z-score, replicate mean": 0.04, "z-score, median over gene's siRNAs": -0.095, "activity call": "inactive"}
{"gene": "PRAF2 (GeneID 11230)", "reagent no.": 3, "TNF reporter z-score, replicate mean": -0.3, "z-score, median over gene's siRNAs": -0.095, "activity call": "inactive"}
{"gene": "PRAF2 (GeneID 11230)", "reagent no.": 4, "TNF reporter z-score, replicate mean": -0.55, "z-score, median over gene's siRNAs": -0.095, "activity call": "inactive"}
{"gene": "PRAF2 (GeneID 11230)", "reagent no.": 5, "TNF reporter z-score, replicate mean": 0.6, "z-score, median over gene's siRNAs": -0.095, "activity call": "inactive"}
{"gene": "PRAF2 (GeneID 11230)", "reagent no.": 6, "TNF reporter z-score, replicate mean": 1.39, "z-score, median over gene's siRNAs": -0.095, "activity call": "inactive"}
{"gene": "CEACAM18 (GeneID 729767)", "reagent no.": 1, "TNF reporter z-score, replicate mean": 0.68, "z-score, median over gene's siRNAs": 1.09, "activity call": "inactive"}
{"gene": "CEACAM18 (GeneID 729767)", "reagent no.": 2, "TNF reporter z-score, replicate mean": -1.17, "z-score, median over gene's siRNAs": 1.09, "activity call": "active"}
{"gene": "CEACAM18 (GeneID 729767)", "reagent no.": 3, "TNF reporter z-score, replicate mean": 1.15, "z-score, median over gene's siRNAs": 1.09, "activity call": "inactive"}
{"gene": "CEACAM18 (GeneID 729767)", "reagent no.": 4, "TNF reporter z-score, replicate mean": 1.25, "z-score, median over gene's siRNAs": 1.09, "activity call": "inactive"}
{"gene": "CEACAM18 (GeneID 729767)", "reagent no.": 5, "TNF reporter z-score, replicate mean": 3.45, "z-score, median over gene's siRNAs": 1.09, "activity call": "active"}
{"gene": "CEACAM18 (GeneID 729767)", "reagent no.": 6, "TNF reporter z-score, replicate mean": 1.03, "z-score, median over gene's siRNAs": 1.09, "activity call": "inactive"}

Records above marked active (2):
{"gene": "CEACAM18 (GeneID 729767)", "reagent no.": 2, "TNF reporter z-score, replicate mean": -1.17, "z-score, median over gene's siRNAs": 1.09, "activity call": "active"}
{"gene": "CEACAM18 (GeneID 729767)", "reagent no.": 5, "TNF reporter z-score, replicate mean": 3.45, "z-score, median over gene's siRNAs": 1.09, "activity call": "active"}

The results go on.
{"gene": "GTF2IRD2B (GeneID 389524)", "reagent no.": 1, "TNF reporter z-score, replicate mean": 0.92, "z-score, median over gene's siRNAs": -0.24, "activity call": "inactive"}
{"gene": "GTF2IRD2B (GeneID 389524)", "reagent no.": 2, "TNF reporter z-score, replicate mean": -0.73, "z-score, median over gene's siRNAs": -0.24, "activity call": "inactive"}
{"gene": "GTF2IRD2B (GeneID 389524)", "reagent no.": 3, "TNF reporter z-score, replicate mean": 0.24, "z-score, median over gene's siRNAs": -0.24, "activity call": "inactive"}
{"gene": "GTF2IRD2B (GeneID 389524)", "reagent no.": 4, "TNF reporter z-score, replicate mean": 2.38, "z-score, median over gene's siRNAs": -0.24, "activity call": "active"}
{"gene": "GTF2IRD2B (GeneID 389524)", "reagent no.": 5, "TNF reporter z-score, replicate mean": -0.72, "z-score, median over gene's siRNAs": -0.24, "activity call": "inactive"}
{"gene": "GTF2IRD2B (GeneID 389524)", "reagent no.": 6, "TNF reporter z-score, replicate mean": -0.77, "z-score, median over gene's siRNAs": -0.24, "activity call": "inactive"}
